Assay in all cases: DAPPL (digital affinity profiling via proximity ligation, sequencing)
Common to all, as to conditions: 10 mM Tris-HCl pH 7.5, 50 mM NaCl, 1 mM DTT, 4% glycerol, room temperature, 30 min; GST-TFs on glutathione beads, 16-mer random dsDNA library, 0.1% …; high values mean tight binding; double strand, one strand shown; scale: fold enrichment (6-mer frequency, TF over GST control)

One test deals with T1, ELK1 (UniProt P19419).
T1 sequence: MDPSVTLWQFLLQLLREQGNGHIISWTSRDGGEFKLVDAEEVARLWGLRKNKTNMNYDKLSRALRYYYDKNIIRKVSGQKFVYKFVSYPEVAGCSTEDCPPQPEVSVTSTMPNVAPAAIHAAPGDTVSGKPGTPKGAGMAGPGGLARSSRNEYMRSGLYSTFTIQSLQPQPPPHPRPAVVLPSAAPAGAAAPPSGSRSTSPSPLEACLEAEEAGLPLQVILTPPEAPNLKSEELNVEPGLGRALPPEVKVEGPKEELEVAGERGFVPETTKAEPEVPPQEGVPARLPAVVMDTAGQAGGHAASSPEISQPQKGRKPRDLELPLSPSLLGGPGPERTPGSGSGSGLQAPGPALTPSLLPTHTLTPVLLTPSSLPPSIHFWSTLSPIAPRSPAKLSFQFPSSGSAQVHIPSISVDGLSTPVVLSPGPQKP

A further test addresses T2, ELK3 (UniProt P41970).
T2 sequence: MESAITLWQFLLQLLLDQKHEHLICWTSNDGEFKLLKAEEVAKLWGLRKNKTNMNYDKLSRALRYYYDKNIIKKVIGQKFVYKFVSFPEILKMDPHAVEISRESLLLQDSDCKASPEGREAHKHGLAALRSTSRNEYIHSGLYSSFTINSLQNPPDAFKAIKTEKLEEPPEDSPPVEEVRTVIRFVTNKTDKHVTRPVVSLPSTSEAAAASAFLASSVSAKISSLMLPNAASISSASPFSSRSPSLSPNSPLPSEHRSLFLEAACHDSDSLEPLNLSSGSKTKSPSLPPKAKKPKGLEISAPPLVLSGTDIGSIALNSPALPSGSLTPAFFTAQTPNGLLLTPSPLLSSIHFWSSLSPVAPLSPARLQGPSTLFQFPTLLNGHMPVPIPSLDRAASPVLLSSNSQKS

For the next test, the target named is T3, ETS2 (UniProt P15036).
T3 sequence: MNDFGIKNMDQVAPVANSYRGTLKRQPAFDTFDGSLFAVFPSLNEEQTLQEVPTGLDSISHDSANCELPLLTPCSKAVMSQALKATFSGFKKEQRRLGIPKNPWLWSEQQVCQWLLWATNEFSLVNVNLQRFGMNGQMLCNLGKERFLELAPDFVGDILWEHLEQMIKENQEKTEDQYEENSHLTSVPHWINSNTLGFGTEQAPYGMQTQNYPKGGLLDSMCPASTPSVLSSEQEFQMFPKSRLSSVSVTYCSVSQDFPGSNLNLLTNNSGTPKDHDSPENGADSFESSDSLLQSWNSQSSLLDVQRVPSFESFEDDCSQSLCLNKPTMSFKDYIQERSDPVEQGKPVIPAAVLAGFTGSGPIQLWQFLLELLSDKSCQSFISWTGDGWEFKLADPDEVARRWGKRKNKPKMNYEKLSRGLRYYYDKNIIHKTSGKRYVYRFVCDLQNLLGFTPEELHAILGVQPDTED

The target of the next test is T4, ETV3 (UniProt P41162-2).
T4 sequence: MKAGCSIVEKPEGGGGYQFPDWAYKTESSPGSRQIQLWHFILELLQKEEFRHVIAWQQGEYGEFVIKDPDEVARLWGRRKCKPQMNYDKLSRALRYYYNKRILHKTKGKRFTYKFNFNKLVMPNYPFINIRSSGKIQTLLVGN

This is a selection; strong and weak results do not stand in their true shares. At the low end of the ranking, values are background and their order means little.

Regarding CGCCCA, the binding signal in the test with ELK1 was 1.13; with ELK3 it was 1.04; with ETS2, 1.04; with ETV3, 0.994.
On to TACGGT, for which the binding signal with ELK1 came to 0.976; with ELK3, 1.11; with ETS2, 0.953; with ETV3, 0.879.
Consider GCCATC, for which the binding signal in the test with ELK1 worked out at 0.963; with ELK3 it was 0.888; with ETS2, 0.942; in the test with ETV3, 0.962.
For the sequence GGTCCA, the binding signal with ELK1 was 0.888; with ELK3, 0.873; with ETS2 it was 0.957; with ETV3 it was 0.909.
As to TTAGCC, the binding signal with ELK1 came out at 0.927; in the test with ETS2, 0.975; with ETV3, 0.979.
Regarding GTTGGC, the binding signal with ELK1 stood at 0.904; with ELK3, 0.84; in the test with ETS2, 0.737; in the test with ETV3, 0.89.
Take AGAAGT: the binding signal in the test with ELK1 came to 0.987; with ETS2 it was 0.973; with ETV3, 1.01.
In the same order, the values of CCACGT are 0.945, 0.927 and 0.964.
As for GTCACG, the binding signal with ELK1 came out at 0.984; in the test with ETS2 it was 0.959; with ETV3, 0.95.
As for CCAGCA, the binding signal came to 0.9 with ELK1, 0.94 with ETS2 and 0.845 in the test with ETV3.
On to TGGTTG, for which the binding signal with ELK1 amounted to 1.02; with ETS2, 1.08; with ETV3 it was 0.973.
GTACTG: the binding signal worked out at 1.02 in the test with ELK1, 1.08 in the test with ELK3, 0.993 with ETS2 and 1.11 with ETV3.
As for TATGAC, the binding signal was 1.34 with ELK1, 1.31 in the test with ETS2 and 1.2 with ETV3.
With ACGCCA, the binding signal with ELK1 stood at 0.845; with ELK3 it was 0.828; in the test with ETS2 it was 0.884; in the test with ETV3, 0.94.
As for GCAATG, the values for the binding signal in the test with ELK1, in the test with ETS2 and with ETV3 were 1.08, 0.961 and 1.03, respectively.
AGTTAC: the binding signal is 0.907 in the test with ELK1, 0.966 with ETS2 and 0.937 with ETV3.
Regarding ATTCTC, the binding signal with ELK1 worked out at 1.27; with ETS2 it was 1.19; in the test with ETV3, 1.17.
As for GCGACA, the binding signal with ELK1 turned out to be 0.949; with ELK3, 0.911; with ETS2, 0.996; with ETV3, 1.01.
For GCTGAC, the binding signal was 1.1 with ELK1, 1.11 in the test with ETS2 and 1.17 in the test with ETV3.
For GGCTCG, the binding signal with ELK1 was found to be 0.975; with ELK3, 0.97; in the test with ETS2, 0.907; with ETV3 it was 0.962.
As for CGACAG, the binding signal in the test with ELK1 came out at 0.925; with ELK3 it was 0.89; with ETS2, 0.992; with ETV3, 0.883.
Take CTTGAG: the binding signal with ELK1 was 0.938; with ELK3, 0.981; with ETS2 it was 0.875; with ETV3 it was 0.926.
CTGACC: the binding signal with ELK1 is 1.41; with ELK3, 1.33; with ETS2, 1.38; with ETV3, 1.4.
On to CTCAGT, for which the values for the binding signal in the test with ELK1, with ETS2 and in the test with ETV3 were 1.21, 1.1 and 1.24, respectively.
On to TAGGAT, for which the binding signal with ELK1 was determined as 0.958; with ETS2, 1.03; with ETV3, 0.982.
For CGCCCC, the binding signal was found to be 1.17 with ELK1, 1.18 with ELK3, 1.05 in the test with ETS2 and 1.16 with ETV3.
For TGTAGA, the binding signal with ELK1 was 0.937; with ELK3, 0.929; with ETS2, 0.879; with ETV3, 0.928.
With AAAGGC, the binding signal with ELK1 was found to be 0.942; with ELK3, 0.941; with ETS2, 1; in the test with ETV3, 0.951.
AGGTGT: the binding signal with ELK1 came to 0.916; with ELK3, 0.673; in the test with ETS2, 0.832; with ETV3, 0.866.
On the same counts, the results for GTGCCG are 0.874, 0.956, 0.836 and 0.918.
Take TTGAGA: the binding signal in the test with ELK1 was found to be 0.823; in the test with ELK3 it was 0.943; with ETS2 it was 0.869; in the test with ETV3 it was 0.878.
In the same order, the values of GTGCTG are 0.853, 0.849, 0.868 and 0.873.
As for GCGCGT, the binding signal worked out at 0.834 with ELK1, 0.74 with ELK3, 0.809 in the test with ETS2 and 0.836 with ETV3.
Regarding ATGGGA, the binding signal is 0.854 with ELK1, 0.804 with ELK3, 0.896 with ETS2 and 0.904 in the test with ETV3.
In the same order, the values of AGCACG are 0.89, 0.823, 0.932 and 0.892.
For the sequence GATAGT, the binding signal with ELK1 was determined as 0.759; with ELK3, 0.874; with ETS2, 0.8; with ETV3 it was 0.864.
For TGTCAG, the binding signal is 0.95 with ELK1, 0.861 in the test with ELK3, 0.897 with ETS2 and 0.922 in the test with ETV3.
Consider AGGGAA, for which the binding signal with ELK1 turned out to be 0.912; in the test with ELK3, 0.903; in the test with ETS2, 0.996; with ETV3, 0.952.
Consider AGCATG, for which the binding signal came to 0.914 with ELK1, 0.979 with ELK3, 0.958 with ETS2 and 0.942 in the test with ETV3.
As for CGTCAT, the binding signal was 0.979 in the test with ELK1, 0.961 in the test with ELK3, 1.03 in the test with ETS2 and 0.923 with ETV3.
On the same counts, the results for CTAGGA are 0.801, 0.913, 0.893 and 0.996.
For the sequence CATAAT, the binding signal with ELK1 was 0.983; with ELK3, 0.971; in the test with ETS2, 0.99; with ETV3, 0.986.
As for TGTGGC, the binding signal worked out at 0.931 with ELK1, 0.925 with ELK3, 0.94 with ETS2 and 0.956 with ETV3.
As for AATGTG, the binding signal was 0.973 with ELK1, 0.925 with ELK3, 0.982 with ETS2 and 0.942 with ETV3.
Consider AGAGCT, for which the binding signal with ELK1 is 0.957; with ELK3 it was 0.809; in the test with ETS2, 0.976; with ETV3, 0.957.
On to TCGTTA, for which the binding signal was 0.96 with ELK1, 0.951 with ELK3, 0.977 in the test with ETS2 and 0.935 with ETV3.
AGATCT: the binding signal in the test with ELK1 turned out to be 0.999; with ELK3, 1.07; in the test with ETS2, 0.979; in the test with ETV3 it was 0.975.
On the same counts, the results for TCGAAG are 0.888, 0.914, 0.988 and 0.854.
In the same order, the values of GGCACC are 0.842, 0.84, 0.818 and 0.894.
For the sequence GCAGAT, the binding signal with ELK1 was 0.946; in the test with ELK3 it was 0.892; in the test with ETS2 it was 0.899; with ETV3, 0.944.
Take GACTCG: the binding signal with ELK1 stood at 0.85; in the test with ELK3 it was 0.941; in the test with ETS2 it was 0.834; in the test with ETV3 it was 0.842.
Take ATTCGG: the binding signal with ELK1 was 0.881; with ELK3, 0.879; in the test with ETS2 it was 0.875; with ETV3 it was 1.02.
Regarding CTGTGG, the binding signal in the test with ELK1 was determined as 0.835; with ELK3 it was 0.891; in the test with ETS2, 0.815; with ETV3, 0.835.
Consider TGGATT, for which the binding signal with ELK1 came to 0.974; with ELK3 it was 0.998; with ETS2 it was 1.03; with ETV3, 0.952.
As to GTACAG, the binding signal was found to be 0.999 with ELK1, 0.854 in the test with ELK3, 0.969 with ETS2 and 0.961 in the test with ETV3.
For CTAAGG, the binding signal was determined as 0.955 with ELK1, 0.87 with ELK3, 0.922 with ETS2 and 0.936 in the test with ETV3.
On the same counts, the results for GAAAAC are 0.997, 0.952, 1.11 and 0.999.
Regarding TAAGGC, the binding signal with ELK1 stood at 0.96; in the test with ELK3, 0.921; with ETS2 it was 0.903; in the test with ETV3 it was 0.933.
On the same counts, the results for TATGGG are 1.06, 1.18, 1.15 and 1.17.
As for TTGGCG, the binding signal in the test with ELK1 was determined as 0.875; with ELK3 it was 0.891; with ETS2, 0.924; with ETV3, 0.916.
On to TGGCGC, for which the binding signal was 0.834 with ELK1, 0.828 in the test with ELK3, 0.942 with ETS2 and 0.925 with ETV3.
In the case of GGGCAT, the binding signal turned out to be 0.95 in the test with ELK1, 0.853 with ELK3, 0.899 with ETS2 and 0.858 with ETV3.
On the same counts, the results for CGAAGG are 0.914, 0.962, 0.979 and 0.889.
AGAACT: the binding signal came out at 0.915 with ELK1, 0.978 with ELK3, 0.888 with ETS2 and 0.918 with ETV3.
In the case of CACGGC, the binding signal stood at 0.949 with ELK1, 0.967 in the test with ELK3, 0.972 in the test with ETS2 and 0.943 with ETV3.
For CTGGGG, the binding signal with ELK1 came out at 0.823; in the test with ELK3, 0.83; in the test with ETS2 it was 0.926; with ETV3, 0.769.
For the sequence GATTTA, the binding signal was 0.888 with ELK1, 1.08 with ELK3, 1 with ETS2 and 0.997 with ETV3.
In the case of TAGAAC, the binding signal with ELK1 was 0.988; in the test with ELK3 it was 1.03; with ETS2 it was 0.978; with ETV3, 0.989.
With GTAGTT, the binding signal is 0.922 with ELK1, 0.992 in the test with ELK3, 1.02 with ETS2 and 0.981 in the test with ETV3.

The record behind these values is article PMC7862700.
